No constants are given. Whether binding was seen depends on the method and setting.
B1: hu55C11λ (antibody, human IgG1, V domains shown)
VH: QVQLVESGGGLVKPGGSLRLSCAASGFTFSSHSMNWVRQTPGKGLEWVSSINTISTFIYYADSVKGRFTVSRDNARNSLFLQMNTLTADDTGVYYCARERGNRFCDGDCYSGTTFDYWGPGTLVTVSS
VL: QPVLTQPPSVSVAPGRTSRITCEENNIGTKNVHWYQQKPGQAPLLVVHDDSDRPSGIPERFSGSNSGNTATLTISRVEAGDEADYYCQVWDSDNDRWLFGGGTRLTVLG
notes: also called 55c11 IgG antibody
B2: hu55L17κ (antibody, human IgG1, V domains shown)
VH: QVQLVQSGAEVKKPGSSVKVSCRPPGGTLSNYAINWVRQAPGQGLEWMGGIVPMFSTTKYAQKFQGRLTLTADLSTITAHMELNRLTSEDTAVYYCARDLPAPYCSADLCYKVLDAFDVWGQGTLVTVSS
VL: EIVLTQSPSSLSASVGDRVTITCQASQDISNYLNWYQQKPGKAPKLLIYKASSLESGVPSRFSGSGSGTEFTLTITRLQPDDFATYYCQQYEEYLRYSFGQGTKLEIK
notes: also called 55L17 IgG antibody
B3: hu55G4λ (antibody, human IgG1, V domains shown)
VH: EVQLVQSGGGAVQPGRSLRLSCAVSGFTFSNFPMHWVRQAPGRGLEWVAVISHDETMIYYLDSVKGRFTISRDNSRNIVYLQMHSLRVEDTAVYYCARDTGVCSGGYCYTPRYFDQWGQGTLVTVSS
VL: QPVLTQPPSVSVAPGKTADITCGGDNIGRKHVHWYRQRPSQAPLLVIYDDSDRPSGIPERLSGINSGNTATLTISGVEVGDEADYYCQVWDNDAEQWVFGGGTKLTV
notes: also called 55G4 IgG antibody; 55LG4

The binders below were run against streptavidin (UniProt P22629) (assay: Western blot; huMAb as primary antibody, goat anti-human IgG-HRP for detection).

| Binder | binding |
| --- | --- |
| B1 | no binding (tested: primary antibody 1:100) |
| B2 | no binding (tested: primary antibody 1:100) |
| B3 | no binding (tested: primary antibody 1:100) |

Source: patent US20240360204A1 (UNITED STATES GOVERNMENT AS REPRESENTED BY THE DEPARTMENT …, published 2024)
